{"source": "patent US20220354847A1", "about": "“THIAMINE THERAPY FOR FATTY LIVER ASSOCIATED DISEASES” (priority 2019, published 2022)", "system": "lambs grown on the HC diet", "conditions": "THC group; HC 5.16, LC 3.50"}
{"smiles": "Cc1ncc(C[n+]2csc(CCO)c2C)c(N)n1", "note": "[thiamine]", "values": [{"measurement": "group mean of daily energy intake (metabolizable energy)", "result": 5.29, "unit": "mcal"}]}
